The source of these data is patent US12059499B2, “Liposome loading” (PLUMB PHARMACEUTICALS, INC., priority 2015, dated 2024).

“And” between values parts separate entries of the source, which are not always exact repeats. Equal values may be shown once. Read-outs that look alike come from different tables or passages of the source.

Series [1] can be described thus: Base content of liposomes prepared by hydration of lyophilized lipid. Conditions: base salt concentration 0.25M.
Series [2] can be described thus: Incorporation of base salts into liposomes by solvent (alcohol) dilution. Conditions: for base content, solvent dilution: 2-propanol; for Pyridine Capture: lipid in 1-butanol, 60° C., 0.2M pyridinium sulfate.
For series [3] the following is noted: cited from earlier work; for incorporation efficiency: dehydration-rehydration vesicles.
The nature of series [4]: Naltrexone loading into 2-propanol dilution liposomes using pyridinium salts. Conditions: pyridinium salt 0.4 M with respect to pyridine, citrate pH 7.0, 48 hours.
A short description of series [5]: Loading of drug into liposomes containing a weak loading base (loading efficiency, spectrophotometric).
The nature of series [6]: Direct capture of drugs into liposomes by solvent dilution. Conditions: chloroquine diphosphate 200 mM in citrate pH 4.0, 1-propanol dilution, 58° C.
The mark [7] stands for this setting: initial volume 300, second volume 200 microliter.
The mark [8] stands for this setting: initial volume 400, second volume 100 microliter.
Where [9] appears, read: initial volume 600, second volume 0 microliter.

Regarding `COc1ccccn1.COc1ccccn1.O=S(=O)(O)CCCS(=O)(=O)O` [2-methoxypyridinium eprodisate], the “base content, hydration of lyophilized lipid” value in series [1] turned out to be 0.079 mol/mol. In addition, the “base content, solvent dilution” value is 0.32 mol/mol in series [2] (base salt concentration 0.2M) and 0.49 mol/mol in series [2] (base salt concentration 0.25M).
Consider `COc1cccc2c1C(=O)c1c(O)c3c(c(O)c1C2=O)C[C@@](O)(C(=O)CO)C[C@@H]3O[C@H]1C[C@H](N)[C@H](O)[C@H](C)O1` [doxorubicin], for which the loading efficiency in series [3] (ammonium sulfate loading, drug precipitates as insoluble sulfate) is listed as 99%.
Take `C1=Cc2cccc(OC[C@H]3CNCCO3)c2C1.O=S(=O)(O)c1ccccc1` [Benzenesulfonate]: the figures for the percent naltrexone loaded in series [4] (Experiment 1) and in series [4] (Experiment 2) were 87.92% and 89.45%, respectively.
`CN1CC[C@]23c4c5ccc(O)c4O[C@H]2C(=O)CC[C@@]3(O)[C@H]1C5` [oxymorphone]: in series [3] (ammonium sulfate gradient technique), the loading efficiency result was “approximately 35%”. For the same compound, the incorporation efficiency in series [3] (dipalmitoylphosphatidylcholine and cholesterol) is recorded as 7%; in series [3] (egg phosphatidylcholine and cholesterol, passive aqueous capture) it was 50%.
With `O=C1CC[C@@]2(O)[C@H]3Cc4ccc(O)c5c4[C@@]2(CCN3CC2CC2)[C@H]1O5` [naltrexone, reference compound], in series [5] (0.2M nicotinamide sulfate, sodium citrate pH 7.0, 29.86 μmol added), the “Percent of Naltrexone Loaded” value is 86.28%. In series [5] (1.5 M pyridinium sulfate liposomes, tris-chloride adjusted to pH 8.1, 50 μmol naltrexone), this compound yielded a loading efficiency of 91.7%.
`Cl.c1ccncc1` [Chloride, pyridinium chloride]: the percent naltrexone loaded in series [4] (Experiment 1) was found to be 88.24%; in series [4] (Experiment 2), 89.74%.
For the compound Methanesulfonate, the percent naltrexone loaded in series [4] (Experiment 1) came out at 89.0%; in series [4] (Experiment 2), 89.3%.
In the case of `O=[N+]([O-])O` [Nitrate], the percent naltrexone loaded in series [4] (Experiment 1) is given as 78.6%; in series [4] (Experiment 2), 75.0%.
As to `CCN(CC)CCCC(C)Nc1ccnc2cc(Cl)ccc12` (centres unmarked) [chloroquine], the “percent of chloroquine loaded” value is 74.71% in series [5] (DPPC:cholesterol 2:1, 0.5M 2-methoxypyridinium eprodisate, sodium citrate pH 3.5, 24 μmol added); 74.76% and 54.36% and 85.71% in series [5] (pH 8.3). For the same compound, the chloroquine capture in series [6] (setting [7]) came to 0.373 mol/mol phospholipid; in series [6] (setting [8]), 0.496 mol/mol phospholipid; in series [6] (initial volume 500, second volume 0 microliter), 0.706 mol/mol phospholipid; in series [6] (setting [9]), 0.610 mol/mol phospholipid. Moreover, the chloroquine capture efficiency in series [6] (setting [7]) amounted to 29.82%; in series [6] (setting [8]), 39.70%; in series [6] (setting [9]), 48.79%.
Consider `c1ccncc1` [pyridine], for which the Capture is 0.718 mol/mol phospholipid in series [2] (alcohol 2-propanol, 59 ° C., 0.2M sulfate salt, 250 + 250 microliters); 0.238 mol/mol phospholipid in series [2] (alcohol Ethanol, 60 ° C., 0.2M sulfate salt, 250 + 250 microliters); 0.0595 mol/mol phospholipid in series [2] (alcohol Methanol, 59 ° C., 0.2M sulfate salt, 250 + 250 microliters); 0.869 mol/mol phospholipid in series [2] (alcohol t-butanol, 62 ° C., 0.2M sulfate salt, 250 + 250 microliters); 1.71 mol/mol in series [2] (lipid in 1-propanol, sulfate salt, first volume 100, second volume 400 microliter); 1.41 mol/mol in series [2] (lipid in 1-propanol, sulfate salt, first volume 200, second volume 300 microliter). Further, the Capture in series [2] (lipid in 1-propanol, sulfate salt, first volume 300, second volume 200 microliter) was found to be 1.16 mol/mol; in series [2] (lipid in 1-propanol, sulfate salt, first volume 400, second volume 100 microliter), 1.05 mol/mol; in series [2] (lipid in 1-propanol, sulfate salt, first volume 500, second volume 0 microliter), 1.72 mol/mol; in series [2] (lipid in 1-propanol, sulfate salt, first volume 600, second volume 0 microliter), 1.93 mol/mol; in series [2] (lipid in 1-propanol, sulfate salt, first volume 700, second volume 0 microliter) it was 1.59 mol/mol; in series [2] (lipid in 2-butanol, sulfate salt, first volume 200, second volume 400 microliter), 0.43 mol/mol. For the same compound, the Capture came to 0.49 mol/mol in series [2] (lipid in 2-butanol, sulfate salt, first volume 300, second volume 300 microliter); 0.52 mol/mol in series [2] (lipid in 2-butanol, sulfate salt, first volume 400, second volume 200 microliter); 0.39 mol/mol in series [2] (lipid in 2-butanol, sulfate salt, first volume 500, second volume 100 microliter); 0.94 mol/mol in series [2] (lipid in 2-butanol, sulfate salt, first volume 600, second volume 0 microliter); 1.44 mol/mol in series [2] (lipid in 2-butanol, sulfate salt, first volume 700, second volume 0 microliter); 2.26 mol/mol in series [2] (lipid in 2-butanol, sulfate salt, first volume 800, second volume 0 microliter). For the same compound, the Capture was 2.69 mol/mol in series [2] (lipid in 2-butanol, sulfate salt, first volume 900, second volume 0 microliter); 3.06 mol/mol in series [2] (lipid in 2-butanol, sulfate salt, first volume 1000, second volume 0 microliter); 2.94 mol/mol in series [2] (lipid in 2-butanol, sulfate salt, first volume 1100, second volume 0 microliter); 2.62 mol/mol in series [2] (lipid in 2-butanol, sulfate salt, first volume 1200, second volume 0 microliter); 0.537 mol/mol in series [2] (lipid in 2-propanol, 58° C., 0.2M sulfate salt, first volume 150, second volume 350 microliter); 0.511 mol/mol in series [2] (lipid in 2-propanol, 58° C., 0.2M sulfate salt, first volume 200, second volume 300 microliter). For the same compound, the Capture in series [2] (lipid in 2-propanol, 58° C., 0.2M sulfate salt, first volume 250, second volume 250 microliter) is 0.718 mol/mol; in series [2] (lipid in 2-propanol, 58° C., 0.2M sulfate salt, first volume 350, second volume 150 microliter), 1.057 mol/mol; in series [2] (lipid in 2-propanol, 58° C., 0.2M sulfate salt, first volume 400, second volume 100 microliter), 1.136 mol/mol; in series [2] (lipid in 2-propanol, 58° C., 0.2M sulfate salt, first volume 450, second volume 50 microliter), 1.012 mol/mol; in series [2] (lipid in 2-propanol, 58° C., 0.2M sulfate salt, first volume 500, second volume 0 microliter), 0.860 mol/mol; in series [2] (lipid in t-butanol, 62° C., 0.2M sulfate salt, first volume 250, second volume 250 microliter), 0.87 mol/mol. For the same compound, the Capture in series [2] (lipid in t-butanol, 62° C., 0.2M sulfate salt, first volume 500, second volume 0 microliter) turned out to be 0.93 mol/mol; in series [2] (lipid in t-butanol, 62° C., 0.2M sulfate salt, first volume 600, second volume 0 microliter), 0.95 mol/mol; in series [2] (lipid in t-butanol, 62° C., 0.2M sulfate salt, first volume 700, second volume 0 microliter), 0.84 mol/mol; in series [2] (lipid in t-butanol, 62° C., 0.2M sulfate salt, first volume 800, second volume 0 microliter), 1.97 mol/mol; in series [2] (lipid in t-butanol, 62° C., 0.2M sulfate salt, first volume 1000, second volume 0 microliter), 0.13 mol/mol; in series [2] (lipid in t-butanol, 62° C., 0.2M sulfate salt, first volume 1200, second volume 0 microliter), 0.20 mol/mol. In series [2] (lipid in t-butanol, 62° C., 0.2M sulfate salt, first volume 1400, second volume 0 microliter), the Capture came to 0.17 mol/mol. In addition, the “Pyridine Capture” value in series [2] (volume 600 microliter) is given as 0.748 mol/mol; in series [2] (volume 800 microliter) it was 0.914 mol/mol; in series [2] (volume 1000 microliter), 1.057 mol/mol; in series [2] (volume 1200 microliter), 1.613 mol/mol; in series [2] (volume 1400 microliter), 1.457 mol/mol; in series [2] (volume 1600 microliter), 2.093 mol/mol. For the same compound, the “Pyridine Capture” value in series [2] (volume 1800 microliter) is 1.565 mol/mol; in series [2] (volume 2000 microliter), 1.629 mol/mol.
Take `O=S(=O)(O)CCCS(=O)(=O)O.c1ccncc1.c1ccncc1` [pyridinium eprodisate]: the percent naltrexone loaded in series [4] (Experiment 1) was 85.6%; in series [4] (Experiment 2), 84.2%. Besides, the “base content, solvent dilution” value in series [2] (base salt concentration 0.2M) was 0.93 mol/mol.
